# Laboratory results taken from paper PMC11078642.
# Chains of the proteins cited; added tags and fusions are not shown.
# UniProt P35222: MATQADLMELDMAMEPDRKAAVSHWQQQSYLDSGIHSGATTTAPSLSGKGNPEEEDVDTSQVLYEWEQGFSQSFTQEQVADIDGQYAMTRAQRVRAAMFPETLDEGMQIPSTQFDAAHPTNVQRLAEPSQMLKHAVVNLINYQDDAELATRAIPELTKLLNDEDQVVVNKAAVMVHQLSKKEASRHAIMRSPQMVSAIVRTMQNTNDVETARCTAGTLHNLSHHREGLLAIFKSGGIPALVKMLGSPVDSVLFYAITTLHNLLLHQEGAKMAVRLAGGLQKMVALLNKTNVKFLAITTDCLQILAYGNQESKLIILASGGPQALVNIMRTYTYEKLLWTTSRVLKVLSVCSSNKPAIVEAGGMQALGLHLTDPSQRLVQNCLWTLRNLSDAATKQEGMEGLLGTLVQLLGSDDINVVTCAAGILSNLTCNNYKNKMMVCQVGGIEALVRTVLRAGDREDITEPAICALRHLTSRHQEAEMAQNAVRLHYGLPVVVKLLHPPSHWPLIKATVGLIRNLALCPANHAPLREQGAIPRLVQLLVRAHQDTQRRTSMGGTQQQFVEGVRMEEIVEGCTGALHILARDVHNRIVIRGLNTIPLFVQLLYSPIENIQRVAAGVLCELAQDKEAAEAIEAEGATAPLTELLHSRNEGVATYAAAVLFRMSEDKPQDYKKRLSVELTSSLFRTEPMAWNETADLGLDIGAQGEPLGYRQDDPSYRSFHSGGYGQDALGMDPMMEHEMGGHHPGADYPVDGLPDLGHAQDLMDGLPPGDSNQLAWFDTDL
# UniProt Q14244: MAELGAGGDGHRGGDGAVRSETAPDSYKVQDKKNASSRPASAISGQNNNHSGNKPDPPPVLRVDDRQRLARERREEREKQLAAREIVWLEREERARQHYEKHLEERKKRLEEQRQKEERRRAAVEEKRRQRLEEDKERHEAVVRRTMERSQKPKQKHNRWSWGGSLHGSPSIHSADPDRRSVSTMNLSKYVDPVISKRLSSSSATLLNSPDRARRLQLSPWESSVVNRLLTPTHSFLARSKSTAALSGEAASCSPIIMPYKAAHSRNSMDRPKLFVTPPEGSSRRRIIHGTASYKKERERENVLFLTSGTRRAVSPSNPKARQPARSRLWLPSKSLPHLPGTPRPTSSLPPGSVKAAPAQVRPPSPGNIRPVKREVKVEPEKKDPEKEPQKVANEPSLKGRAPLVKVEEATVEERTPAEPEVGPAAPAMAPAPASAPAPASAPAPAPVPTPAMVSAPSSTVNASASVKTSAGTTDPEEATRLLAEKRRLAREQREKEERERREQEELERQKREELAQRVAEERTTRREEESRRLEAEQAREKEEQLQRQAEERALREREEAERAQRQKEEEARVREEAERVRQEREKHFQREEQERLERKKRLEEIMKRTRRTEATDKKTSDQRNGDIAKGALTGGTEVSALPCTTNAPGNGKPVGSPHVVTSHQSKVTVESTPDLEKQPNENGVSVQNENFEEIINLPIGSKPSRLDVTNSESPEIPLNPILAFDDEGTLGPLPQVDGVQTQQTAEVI
# No constants are given. Whether binding was seen depends on the method and setting. Binding seen in cells or lysates may run through a third protein. Some binding calls cover weakened binding; strength is not graded here.
# Legend:
# [1] = biological target: CBY1 (Chibby family member 1) (human (endogenous in A2780)) (UniProt Q9Y3M2); assay: co-IP; endogenous proteins; 1 mg total protein of A2780-DDP (cisplatin-resistant) and parental A2780 cells in 1 mL IP buffer with protease inhibitors; 10 μg antibody (anti-MAP7, anti-β-catenin or anti-CBY1) or control IgG; Protein A/G agarose beads, room temperature 2 h; Western blot
# [2] = biological target: β-catenin (human (endogenous in A2780)) (UniProt P35222); assay: as above
Substance,binding [1],binding [2]
β-catenin (from UniProt P35222 1-781),binds,
Microtubule-associated protein 7 (MAP7) (from UniProt Q14244 1-749),binds,binds weakly
